According to the supplement of paper PMC7661543:
± gives the standard deviation of the averaged measurements. The effect of the compound repeats well; differences between the knockouts mostly do not.

How the values were obtained:
Assay in all cases: relative cell number vs DMSO control (72 h) (% of DMSO); higher = less growth inhibition (more cells)
[1] = tested on: ZR-75-1
Method: (§1)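 QMAP-Seq: a pool of 5 breast cancer cell lines (ZR-75-1, SKBR3, HCC-38, MDA-MB-231, BT-20), each carrying 12 doxycycline-inducible Cas9 sgRNA perturbations (11 knockouts plus non-targeting sgNT), was treated with compounds for 72 h at four 10-fold doses (10 nM-10 uM or 1 nM-1 uM range). Barcodes were amplified and sequenced, and cell number was interpolated from 293T spike-in standard curves. The result is expressed as % of the median of DMSO wells. Two biological replicates.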

[2] = tested on: MDA-MB-231
Method: as §1

[3] = tested on: SKBR3
Method: as §1

Cc1cc(C2CCCCC2)n(O)c(=O)c1 [Ciclopirox]
relative cell number
Settings | [1] | [2] | [3]
sgRNA knockout: sgATF3, 10 nM | 108 ± 33 | 97.7 ± 1.8 | 120 ± 5.7
sgRNA knockout: sgATF3, 100 nM | 85.3 ± 7 | 110 ± 25 | 85 ± 5.3
sgRNA knockout: sgATF3, 1000 nM | 66 ± 10 | 67.6 ± 20 | 72.29 ± 0.6
sgRNA knockout: sgATF3, 10000 nM | 22.5 ± 5.1 | 11.5 ± 3.9 | 19.3 ± 2.5
sgRNA knockout: sgATF4, 10 nM | 108 ± 41 | 100 ± 11 | 89 ± 17
sgRNA knockout: sgATF4, 100 nM | 67.1 ± 26 | 85.5 ± 6.1 | 93.3 ± 29
sgRNA knockout: sgATF4, 1000 nM | 62.6 ± 3.5 | 57.2 ± 38 | 62.73 ± 0.25
sgRNA knockout: sgATF4, 10000 nM | 16.9 ± 11 | 17 ± 3.2 | 18.1 ± 1.4
sgRNA knockout: sgATF6, 10 nM | 120 ± 7.1 | 92.9 ± 5.2 | 77.2 ± 6.4
sgRNA knockout: sgATF6, 100 nM | 68.9 ± 50 | 66.7 ± 21 | 87.6 ± 12
sgRNA knockout: sgATF6, 1000 nM | 34.2 ± 22 | 66.4 ± 5 | 58.4 ± 8.7
sgRNA knockout: sgATF6, 10000 nM | 17.5 ± 0.51 | 19.5 ± 0.51 | 15.5 ± 4.8
sgRNA knockout: sgATG7, 10 nM | 104 ± 4.5 | 105.9 ± 0.29 | 99.6 ± 16
sgRNA knockout: sgATG7, 100 nM | 89.34 ± 0.29 | 98.9 ± 11 | 90.6 ± 13
sgRNA knockout: sgATG7, 1000 nM | 43.6 ± 1.9 | 51.5 ± 0.96 | 68 ± 25
sgRNA knockout: sgATG7, 10000 nM | 20.7 ± 4.1 | 13.9 ± 5.3 | 26.7 ± 5.2
sgRNA knockout: sgERN1, 10 nM | 97.87 ± 0.39 | 85.4 ± 9.3 | 113 ± 8.4
sgRNA knockout: sgERN1, 100 nM | 83.9 ± 21 | 96.5 ± 5.5 | 82.2 ± 14
sgRNA knockout: sgERN1, 1000 nM | 41 ± 1 | 69 ± 17 | 73.7 ± 7.9
sgRNA knockout: sgERN1, 10000 nM | 23.9 ± 0.56 | 16.7 ± 4.5 | 18.8 ± 1.4
sgRNA knockout: sgHSF1, 10 nM | – | 79.1 ± 12 | 88.8 ± 6.9
sgRNA knockout: sgHSF1, 100 nM | – | 91.4 ± 20 | 82.3 ± 19
sgRNA knockout: sgHSF1, 1000 nM | – | 56.3 ± 12 | 73.7 ± 5.3
sgRNA knockout: sgHSF1, 10000 nM | – | 14.4 ± 3.6 | 19.7 ± 4.5
sgRNA knockout: sgHSF2, 10 nM | 92.8 ± 9.7 | 110 ± 23 | 71.9 ± 2.3
sgRNA knockout: sgHSF2, 100 nM | 112 ± 11 | 83.7 ± 4.8 | 91.2 ± 22
sgRNA knockout: sgHSF2, 1000 nM | 50.1 ± 2.9 | 70.3 ± 23 | 66.7 ± 12
sgRNA knockout: sgHSF2, 10000 nM | 28.2 ± 5 | 16.1 ± 2.4 | 25 ± 6.6
sgRNA knockout: sgKEAP1, 10 nM | – | 89.6 ± 9.6 | 80.2 ± 4.4
sgRNA knockout: sgKEAP1, 100 nM | – | 122 ± 22 | 102 ± 12
sgRNA knockout: sgKEAP1, 1000 nM | – | 56 ± 12 | 51 ± 4.8
sgRNA knockout: sgKEAP1, 10000 nM | – | 15.8 ± 0.23 | 23.5 ± 4.1
sgRNA knockout: sgNFE2L2, 10 nM | 113 ± 12 | 78 ± 9.6 | 96.7 ± 2.4
sgRNA knockout: sgNFE2L2, 100 nM | 118 ± 18 | 105 ± 16 | 92.7 ± 2.6
sgRNA knockout: sgNFE2L2, 1000 nM | 69.3 ± 4.2 | 58.4 ± 0.24 | 59.7 ± 3.6
sgRNA knockout: sgNFE2L2, 10000 nM | 29.1 ± 7.8 | 16.3 ± 3.8 | 20.4 ± 1.7
sgRNA knockout: sgSLC35F2, 10 nM | 96.7 ± 54 | 94.6 ± 14 | 89.099 ± 0.0018
sgRNA knockout: sgSLC35F2, 100 nM | 72.6 ± 40 | 84.5 ± 7.4 | 88.8 ± 8.2
sgRNA knockout: sgSLC35F2, 1000 nM | 59.2 ± 15 | 59.2 ± 15 | 62.1 ± 6.6
sgRNA knockout: sgSLC35F2, 10000 nM | 24.9 ± 17 | 14.8 ± 2.7 | 14.7 ± 2.1
sgRNA knockout: sgXBP1, 10 nM | 86.02 ± 0.41 | 85.4 ± 3.9 | 87.1 ± 20
sgRNA knockout: sgXBP1, 100 nM | 101 ± 13 | 72.2 ± 7 | 83.8 ± 9.7
sgRNA knockout: sgXBP1, 1000 nM | 51 ± 1.6 | 54.4 ± 7.6 | 73.6 ± 2.1
sgRNA knockout: sgXBP1, 10000 nM | 27.7 ± 0.46 | 13.5 ± 1.5 | 20.4 ± 4.5

COc1cc([C@@H]2c3cc4c(cc3[C@@H](O[C@@H]3O[C@@H]5CO[C@@H](c6cccs6)O[C@H]5[C@H](O)[C@H]3O)[C@H]3COC(=O)[C@H]23)OCO4)cc(OC)c1O [Teniposide]
relative cell number
Settings | [1] | [2] | [3]
sgRNA knockout: sgATF3, 10 nM | 86.9 ± 7.1 | 99.2 ± 10 | 91.4 ± 4.7
sgRNA knockout: sgATF3, 100 nM | 33.8 ± 3.5 | 29.6 ± 13 | 37.9 ± 7.4
sgRNA knockout: sgATF3, 1000 nM | 48.6 ± 8.1 | 20.6 ± 3.8 | 18.1 ± 2.6
sgRNA knockout: sgATF3, 10000 nM | 21.6 ± 3.1 | 10.1 ± 3 | 10.3 ± 0.39
sgRNA knockout: sgATF4, 10 nM | 81.3 ± 18 | 79.8 ± 16 | 90.6 ± 5.6
sgRNA knockout: sgATF4, 100 nM | 52.6 ± 14 | 33.9 ± 10 | 46.9 ± 4
sgRNA knockout: sgATF4, 1000 nM | 42.2 ± 5.7 | 24.3 ± 12 | 21.4 ± 2.6
sgRNA knockout: sgATF4, 10000 nM | 32.5 ± 0.9 | 12.2 ± 8.4 | 6.64 ± 2.6
sgRNA knockout: sgATF6, 10 nM | 101 ± 27 | 89.9 ± 17 | 91.8 ± 3.5
sgRNA knockout: sgATF6, 100 nM | 24.1 ± 10 | 25.2 ± 0.81 | 41.9 ± 4.7
sgRNA knockout: sgATF6, 1000 nM | 31.1 ± 4.1 | 19.9 ± 13 | 18.7 ± 3.5
sgRNA knockout: sgATF6, 10000 nM | 33 ± 6.7 | 15.3 ± 4.1 | 6.86 ± 4.1
sgRNA knockout: sgATG7, 10 nM | 87.6 ± 25 | 89.3 ± 9.1 | 105 ± 3.7
sgRNA knockout: sgATG7, 100 nM | 45.1 ± 7.9 | 29.4 ± 2.8 | 47.6 ± 9.6
sgRNA knockout: sgATG7, 1000 nM | 35.9 ± 11 | 16.2 ± 3.5 | 20.5 ± 7
sgRNA knockout: sgATG7, 10000 nM | 21.9 ± 6.7 | 7.86 ± 2.6 | 8.34 ± 3.1
sgRNA knockout: sgERN1, 10 nM | 90.1 ± 2.1 | 83.2 ± 1.4 | 83.54 ± 0.83
sgRNA knockout: sgERN1, 100 nM | 52.4 ± 17 | 39.2 ± 6.1 | 39.4 ± 13
sgRNA knockout: sgERN1, 1000 nM | 35.7 ± 6.7 | 12.4 ± 0.6 | 21.1 ± 5
sgRNA knockout: sgERN1, 10000 nM | 30.6 ± 11 | 6.96 ± 1.3 | 9.68 ± 1.7
sgRNA knockout: sgHSF1, 10 nM | – | 67.9 ± 0.81 | 86.3 ± 1.1
sgRNA knockout: sgHSF1, 100 nM | – | 27.4 ± 2.9 | 38.7 ± 6
sgRNA knockout: sgHSF1, 1000 nM | – | 19.6 ± 1.1 | 20.3 ± 1.8
sgRNA knockout: sgHSF1, 10000 nM | – | 10.9 ± 1.6 | 9.65 ± 1.1
sgRNA knockout: sgHSF2, 10 nM | 76.9 ± 16 | 95.1 ± 17 | 80.7 ± 11
sgRNA knockout: sgHSF2, 100 nM | 35.37 ± 0.29 | 25.2 ± 3.4 | 43.2 ± 9.6
sgRNA knockout: sgHSF2, 1000 nM | 37.73 ± 0.22 | 24.4 ± 10 | 25.8 ± 3.2
sgRNA knockout: sgHSF2, 10000 nM | 18.8 ± 2.4 | 9.15 ± 4.7 | 9.18 ± 4
sgRNA knockout: sgKEAP1, 10 nM | – | 93.7 ± 22 | 85.7 ± 4.8
sgRNA knockout: sgKEAP1, 100 nM | – | 32.2 ± 7.5 | 40.1 ± 3
sgRNA knockout: sgKEAP1, 1000 nM | – | 21.8 ± 11 | 15.6 ± 2.3
sgRNA knockout: sgKEAP1, 10000 nM | – | 6.17 ± 1.4 | 6.36 ± 3.1
sgRNA knockout: sgNFE2L2, 10 nM | 61.5 ± 18 | 85.3 ± 1.3 | 86.9 ± 16
sgRNA knockout: sgNFE2L2, 100 nM | 35.5 ± 6.8 | 28.7 ± 12 | 40.6 ± 4.8
sgRNA knockout: sgNFE2L2, 1000 nM | 31.5 ± 23 | 21.1 ± 3 | 19.4 ± 1.9
sgRNA knockout: sgNFE2L2, 10000 nM | 22.7 ± 12 | 9.44 ± 2.7 | 9.33 ± 4.5
sgRNA knockout: sgSLC35F2, 10 nM | 75.5 ± 4.3 | 79.6 ± 13 | 81.2 ± 1.5
sgRNA knockout: sgSLC35F2, 100 nM | 19.7 ± 15 | 25.6 ± 14 | 39.9 ± 6.8
sgRNA knockout: sgSLC35F2, 1000 nM | 38.7 ± 29 | 21 ± 11 | 18.9 ± 7.9
sgRNA knockout: sgSLC35F2, 10000 nM | 20.6 ± 15 | 10.7 ± 0.46 | 11.5 ± 4.2
sgRNA knockout: sgXBP1, 10 nM | 64.8 ± 0.86 | 65.9 ± 4 | 103 ± 6.4
sgRNA knockout: sgXBP1, 100 nM | 45.2 ± 17 | 31.7 ± 6.7 | 39.9 ± 13
sgRNA knockout: sgXBP1, 1000 nM | 32.1 ± 12 | 19.2 ± 0.83 | 17.4 ± 4.7
sgRNA knockout: sgXBP1, 10000 nM | 22.9 ± 5.8 | 9.11 ± 0.88 | 9.52 ± 2.5
